Results reported in patent US6689807B1, “HMG CoA reductase inhibitors for promoting angiogenesis” (priority 2000, dated 2004).
At least one compound was matched to its structure with a doubt left.

How the values were obtained:
[1] = system: Akt; assay: Akt serine 473 phosphorylation, western immunoblot in HUVEC; type: cell-based, human; settings: for effect on simvastatin-induced Akt phosphorylation: HUVEC pretreated 1 hour (mevalonate 200 μM, wortmannin 500 nM, LY294002 10 μM), then 1 μM simvastatin 30 minutes
[2] = system: eNOS; assay: Phosphorylation of endogenous eNOS in vivo (32P-orthophosphate labelled HUVEC); type: cell-based, human
Procedure: Alternatively, HUVEC were infected with adenovirus expressing constitutively-active Akt (myrAkt) 24 hours prior to radiolabeling and assayed for endogenous eNOS phosphorylation in the absence of Akt agonist. […] Endogenous eNOS protein was immunoprecipitated, separated by SDS-PAGE, and its phosphorylation was visualized by autoradiography. c, COS-7 cells co-transfected with eNOS (wt: wildtype eNOS, S1179A: serine 1179 mutant) and Akt (HA-Akt) expression plasmids. […] Immunoprecipitates of wild-type or mutant eNOS were examined for ^32P-phosphate incorporation by autoradiography following SDS-PAGE.
The lysate was subjected to immunoprecipitation using mouse monoclonal anti-eNOS antibody (Transduction Laboratories). Radiolabeled phosphate incorporation into each protein was visualized after SDS-PAGE (7.5%) by autoradiography.

[3] = system: angiogenesis; settings: independent of cholesterol lowering effects; cited from earlier work
[4] = system: HUVEC; assay: Apoptosis assays in serum-free HUVEC (Annexin-V/propidium iodide, Hoechst 33342 pyknotic nuclei); type: cell-based, human; settings: serum-free media
Procedure: HUVEC cultures were plated on chamber slides at a density of 4×10^4 cells/well. […] Parallel cultures were infected with an adenoviral construct expressing dominant-negative Akt (dnAKT) 24 hours prior to the change to serum-free media.
Data are shown as the mean ±S.E.M. (n=4-6, *p<0.05).
Fluorescence-labeled Annexin-V-FLUOS staining of HUVEC was performed according to manufacturer's instructions (Roche Molecular Biochemicals). Briefly, cells were plated on to chamber slides (Nunc) and placed in EBM for 3 hours. […] For detection of pyknotic nuclei, cells were stained with Hoechst 33342. […] Infection with adenovirus encoding dominant-negative Aktl was initiated 24 hours prior to incubation in EBM media.

[5] = system: Akt; assay: Akt polypeptide kinase assay (Akt immunoprecipitated from treated HUVEC; histone H2B or eNOS peptide substrate); type: cell-based, human
[6] = system: eNOS; assay: Phosphorylation of eNOS in COS-7 cells co-transfected with eNOS and HA-Akt; type: cell-based; settings: wortmannin

O=c1cc(N2CCOCC2)oc2c(-c3ccccc3)cccc12 [LY294002]
effect on simvastatin-induced Akt phosphorylation [1]: blocked

CCC(C)(C)C(=O)O[C@H]1C[C@@H](C)C=C2C=C[C@H](C)[C@H](CC[C@@H]3C[C@@H](O)CC(=O)O3)[C@H]21 [simvastatin]
phosphate incorporation in endogenous eNOS ([2]; simvastatin 1 μM or VEGF 100 ng/ml, 30 min): increase | anti-angiogenic effects [3]: potent anti-angiogenic effects | endothelial cell survival (frequency of pyknotic nuclei, Hoechst 33342) ([4]; 1 μM simvastatin): promoted endothelial cell survival | number of endothelial cells positive for Annexin-V or propidium iodide staining ([4]; simvastatin 1 μM 5 hours): decreased | total Akt or eNOS protein levels ([1]; HUVEC): did not affect | earliest time at which increased Akt phosphorylation was detected ([1]; HUVEC, 1.0 μM simvastatin): 15 min | time of peak Akt phosphorylation ([1]; HUVEC, 1.0 μM simvastatin): approximately 1 hour | Akt serine 473 phosphorylation ([1]; HUVEC, simvastatin within 30 minutes, VEGF 100 ng/ml): dose-dependent increase | Akt polypeptide kinase activity toward histone H2B ([5]; lysates of HUVEC treated with 1.0 μM simvastatin or 100 ng/ml VEGF): increased | Akt kinase activity toward eNOS peptide (amino acids 1174 to 1194) ([5]; lysates of simvastatin-treated HUVEC): Activation

COC[C@H]1OC(=O)c2coc3c2[C@@]1(C)C1=C(C3=O)[C@@H]2CCC(=O)[C@@]2(C)C[C@H]1OC(C)=O [wortmannin]
effect on simvastatin- or VEGF-induced phosphate incorporation in eNOS ([2]; wortmannin 500 nM 1 hour prior or dominant-negative Akt transduction): blocked | effect on simvastatin-induced phosphorylation of eNOS [6]: blocked | effect on VEGF-induced endothelial cell survival [4]: blocked | effect on statin-induced endothelial cell survival [4]: blocked | effect on survival in the absence of statin or VEGF stimulation [4]: no detectable effect | effect on simvastatin-induced Akt phosphorylation [1]: blocked | effect on simvastatin- and VEGF-induced kinase activities toward the eNOS peptide ([5]; wortmannin 500 nM, 1 hour prior): abolished
